Data: patent publication US20080139456A1 (priority 2005, published 2008)

Legend:
[1] = general procedure: Fmoc solid-phase peptide synthesis; 4-(4-formyl-3-methoxyphenoxy)butyryl-NovaGel HL resin, reductively aminated with 1-naphthylmethylamine; HATU/HOAt (Gly, AllylGly); DIPCDI/HOBt (Asn(Trt)); DIPCDI/HOAt (Ac6c, pTyr mimet); conditions: for cyclisation yield: cyclisation step
[2] = general procedure: Fmoc solid-phase peptide synthesis; N-(1-naphthylmethylamino)-modified NovaGel HL resin 14; HATU/HOAt (Gly, AllylGly); DIPCDI/HOBt (Asn(Trt)); DIPCDI/HOAt (Ac6c, pTyr mimet); conditions: whole synthesis, scale 0.030 mmol

| Substance | step yield ([1]; coupling step) [% yield] | cyclisation yield [1] [% yield] | also measured |
| --- | --- | --- | --- |
| [(2R)-3-(4-Dihydroxyphosphonomethyl)phenyl-2-(hydroxylcarbonylmethyl) propionyl]-Ac6c-L-Asn-Gly-(1-naphthyl)methyl Amide | – | – | isolated yield ([1]; whole synthesis, based on resin substitution, scale 0.030 mmol): 45% yield based on resin substitution; isolated mass [2]: 10 mg |
| [(2R,3R)-3-(4-Di-tert-butyloxyphosphonomethyl)phenyl-2-(tert-butyloxycarbonylmethyl)pent-4-enyl]-AC6c-L-Asn-L-AllylGly-(1-naphthyl)methyl amide | 12 | – | – |
| [(2R,3R)-3-(4-Di-tert-butyloxyphosphonomethyl)phenyl-2-(tert-butyloxycarbonylmethyl)pent-4-enyl]-AC6c-L-Asn-D-AllylGly-(1-naphthyl)methyl amine | 45 | – | – |
| Cyclo{[(2R,3R)-3-(4-dihydroxyphosphonomethyl)phenyl-2-(hydroxycarbonylmethyl)pent-4-enyl]-AC6c-L-Asn-D-AllylGly}-(1-naphthyl)methyl amide | – | – | step yield ([1]; late stage modification step): 46% yield |
| Cyclo{[(2R,3R)-3-(4-di-tert-butyloxyphosphonomethyl)phenyl-2-(tert-butyloxycarbonylmethyl)pent-4-enyl]-AC6c-L-Asn-L-AllylGly}-(1-naphthyl)methyl amide | – | 73 | – |
| Cyclo{[(2R,3R)-3-(4-di-tert-butyloxyphosphonomethyl)phenyl-2-(tert-butyloxycarbonylmethyl)pent-4-enyl]-AC6c-L-Asn-D-AllylGly}-(1-naphthyl)methyl amide | – | 52 | – |
